The list shows only some results of the screen, not a fair sample: it is rich in T/C values a quarter to a half above the control, in often repeated tests (any T/C) and in doses without a T/C. Further doses and runs are listed elsewhere. T/C gives the treated animals as a percentage of the vehicle group. Some doses have a count of surviving animals in place of a T/C: the source files T/C as zero there, which appears to mark a toxic dose or a test without result, not a measured value. Some doses without a T/C left all or most animals alive at the check, yet need not have been tolerated: the source hardly ever lists a survival T/C far under the control, and the zero likely stands for such cases as well. Survivors were counted at the toxicity check, usually on the fifth day, unless a day is given; later deaths do not show. Schedule codes are those of the source, read here as Q, the interval in days (D) or hours (H), X, the number of doses. Some entries were tested several times; their values stand side by side, smallest first. Some schedule codes hold Z or #, which are not explained here. For survival time, this PubChem deposit counts one and a half times the control or more as active, and values a quarter to a half above the control carry no call in these data; other NCI protocols may use other cut-offs. Some T/C values carry the count of animals alive at the toxicity check (mostly the fifth day); where none is given, no animal had died by that day.
System: L1210 leukemia ip in BDF1 mice, survival T/C
Assay: NCI In Vivo Anticancer Drug Screen. Data for tumor model L1210 Leukemia (intraperitoneal) in B6D2F1 (BDF1) mice
Details: T/C endpoint: mean survival time, higher T/C = longer survival
[1] = dose: 200.0 mg/kg/injection, schedule: Q01DX009 (ip), vehicle: Klucel (hydroxypropylcellulose) (HPC)
[2] = dose: 400.0 mg/kg/injection, schedule: Q01DX009 (ip), vehicle: Klucel (hydroxypropylcellulose) (HPC)
[3] = dose: 200.0 mg/kg/injection, schedule: Q04DX003 (ip), vehicle: Klucel (hydroxypropylcellulose) (HPC)
[4] = dose: 400.0 mg/kg/injection, schedule: Q01DX001 (ip), vehicle: saline
[5] = dose: 400.0 mg/kg/injection, schedule: Q04DX003 (ip), vehicle: Klucel (hydroxypropylcellulose) (HPC)
[6] = dose: 200.0 mg/kg/injection, schedule: Q04DX002 (ip), vehicle: Klucel (hydroxypropylcellulose) (HPC)
[7] = dose: 400.0 mg/kg/injection, schedule: Q04DX002 (ip), vehicle: Klucel (hydroxypropylcellulose) (HPC)
[8] = dose: 300.0 mg/kg/injection, schedule: Q01DX001 (ip), vehicle: saline
[9] = dose: 100.0 mg/kg/injection, schedule: Q01DX009 (ip), vehicle: saline
[10] = dose: 200.0 mg/kg/injection, schedule: Q01DX009 (ip), vehicle: saline

CC(=O)CC(=O)Nc1cccc([N+](=O)[O-])c1
survivor count [1]: 5 of 6
survivor count [2]: 3 of 6

Cc1ccc(S(=O)(=O)NS(=O)(=O)c2ccc(C)cc2)cc1
survivor count [3]: 3 of 3
survivor count [4]: 2 of 4
survivor count [5]: 2 of 3

CCOC(OCC)/C(C)=N\NC(N)=S
survivor count (dose: 960.0 mg/kg/injection, schedule: Q01DX Z (oral), vehicle: carboxymethylcellulose (CMC)): 4 of 6

CC(=O)OCC1OC(N2C(=O)/C(=C/c3ccc([N+](=O)[O-])cc3)SC2=S)C(OC(C)=O)C(OC(C)=O)C1OC(C)=O (centres undefined)
survivor count (dose: 25.0 mg/kg/injection, schedule: Q01DX005 (ip), vehicle: other): 0 of 6
survivor count (dose: 50.0 mg/kg/injection, schedule: Q01DX005 (ip), vehicle: other): 0 of 6
survivor count (dose: 100.0 mg/kg/injection, schedule: Q01DX005 (ip), vehicle: other): 1 of 6
survivor count (dose: 200.0 mg/kg/injection, schedule: Q01DX005 (ip), vehicle: other): 0 of 6
survivor count (dose: 400.0 mg/kg/injection, schedule: Q01DX005 (ip), vehicle: other): 0 of 6

CC(=O)c1c[nH]c2c(O)ccc(O)c12
survivor count (dose: 12.5 mg/kg/injection, schedule: Q04DX002 (ip), vehicle: Klucel (hydroxypropylcellulose) (HPC)): 3 of 3
survivor count (dose: 50.0 mg/kg/injection, schedule: Q04DX002 (ip), vehicle: Klucel (hydroxypropylcellulose) (HPC)): 1 of 3

Cc1cccc(C)c1N=Nc1cc[n+]([O-])cc1
survivor count (dose: 12.5 mg/kg/injection, schedule: Q04DX003 (ip), vehicle: saline with Tween-80): 3 of 6
survivor count (dose: 100.0 mg/kg/injection, schedule: Q04DX003 (ip), vehicle: saline with Tween-80): 5 of 6
survivor count (dose: 200.0 mg/kg/injection, schedule: Q04DX003 (ip), vehicle: saline with Tween-80): 2 of 6
survivor count (dose: 400.0 mg/kg/injection, schedule: Q04DX003 (ip), vehicle: saline with Tween-80): 0 of 6

O=C(O)c1ccc(S(=O)(=O)O)cc1C(=O)O
survivor count (dose: 400.0 mg/kg/injection, schedule: Q01DX009 (ip), vehicle: saline with Tween-80): 6 of 6

CSc1cccc(N2C(=O)C=CC2=O)c1
survivor count (dose: 20.0 mg/kg/injection, schedule: Q04DX002 (ip), vehicle: Klucel (hydroxypropylcellulose) (HPC)): 0 of 3
survivor count (dose: 40.0 mg/kg/injection, schedule: Q04DX002 (ip), vehicle: Klucel (hydroxypropylcellulose) (HPC)): 0 of 3
survivor count (dose: 100.0 mg/kg/injection, schedule: Q04DX002 (ip), vehicle: Klucel (hydroxypropylcellulose) (HPC)): 0 of 3
survivor count [6]: 0 of 3
survivor count [7]: 0 of 3

CCN(CC)C(=S)SCc1ccccc1OC(=O)NC
survivor count [8]: 0 of 6

Nc1cc(C(=O)Nc2ccc(C3=NCCN3)cc2)cc(C(=O)Nc2ccc(C3=NCCN3)cc2)c1
T/C (dose: 16.0 mg/kg/injection, schedule: Q01DX010 (sc), vehicle: saline): 131 % of control
T/C (dose: 32.0 mg/kg/injection, schedule: Q01DX Z (ip), vehicle: saline): 144 % of control

CN(C)C1CCCC(OC(=O)c2ccccc2)C1 (centres undefined)
survivor count (dose: 200.0 mg/kg/injection, schedule: Q04DX003 (ip), vehicle: saline sonified): 6 of 6
survivor count (dose: 400.0 mg/kg/injection, schedule: Q04DX003 (ip), vehicle: saline sonified): 0 of 6

O=C(O)C(CSC(c1ccccc1)(c1ccccc1)c1ccccc1)NSc1ccccc1[N+](=O)[O-] (centres undefined)
T/C [2]: 125 % of control [5 of 6 alive]

NC(CCl)=NC1CC1
survivor count (dose: 100.0 mg/kg/injection, schedule: Q04DX002 (ip), vehicle: saline): 0 of 3
survivor count (dose: 200.0 mg/kg/injection, schedule: Q04DX002 (ip), vehicle: saline): 0 of 3
survivor count (dose: 400.0 mg/kg/injection, schedule: Q04DX002 (ip), vehicle: saline): 0 of 3

CC/C(=C\c1ccccc1)[N+](=O)[O-]
survivor count (dose: 100.0 mg/kg/injection, schedule: Q01DX009 (ip), vehicle: Klucel (hydroxypropylcellulose) (HPC)): 3 of 6
survivor count [1]: 0 of 6
survivor count [3]: 5 of 6
survivor count [5]: 0 of 6

CN(C)N=Nc1cn(C)c(=O)[nH]c1=O
T/C (dose: 100.0 mg/kg/injection, schedule: Q04DX003 (ip), vehicle: water): 125 and 133 % of control
T/C (dose: 200.0 mg/kg/injection, schedule: Q04DX003 (ip), vehicle: water): 126 [5 of 6 alive] and 143 % of control
survivor count (dose: 300.0 mg/kg/injection, schedule: Q04DX003 (ip), vehicle: water): 1 of 6

Nc1ncnc2c1ccn2C1OC(CO)C(O)C1O (centres undefined)
survivor count (dose: 0.5 mg/kg/injection, schedule: Q## X005 (ip), vehicle: carboxymethylcellulose (CMC)): 0 of 10
T/C (dose: 2.0 mg/kg/injection, schedule: Q01DX001 (ip), vehicle: carboxymethylcellulose (CMC)): 130 % of control
T/C (dose: 2.9 mg/kg/injection, schedule: Q01DX001 (ip), vehicle: carboxymethylcellulose (CMC)): 140 % of control
T/C (dose: 4.0 mg/kg/injection, schedule: Q01DX001 (ip), vehicle: carboxymethylcellulose (CMC)): 131 % of control
survivor count (dose: 4.0 mg/kg/injection, schedule: Q02DX009 (ip), vehicle: carboxymethylcellulose (CMC)): 10 of 10
T/C (dose: 4.0 mg/kg/injection, schedule: Q## X003 (ip), vehicle: carboxymethylcellulose (CMC)): 127 % of control
survivor count (dose: 5.0 mg/kg/injection, schedule: Q01DX Z (ip), vehicle: carboxymethylcellulose (CMC)): 4 of 6
survivor count (dose: 8.0 mg/kg/injection, schedule: Q01DX001 (ip), vehicle: carboxymethylcellulose (CMC)): 6 of 10
survivor count (dose: 8.0 mg/kg/injection, schedule: Q## X003 (ip), vehicle: carboxymethylcellulose (CMC)): 4 of 10
survivor count (dose: 10.0 mg/kg/injection, schedule: Q01DX Z (ip), vehicle: carboxymethylcellulose (CMC)): 0 of 6

O=C1CCSc2c1ccc1ccccc21
survivor count (dose: 200.0 mg/kg/injection, schedule: Q01DX001 (ip), vehicle: saline): 4 of 4
survivor count [4]: 4 of 4

CSc1ncnc2c1nnn2C1OC(COC(=O)c2ccccc2)C(OC(=O)c2ccccc2)C1OC(=O)c1ccccc1 (centres undefined)
survivor count (dose: 200.0 mg/kg/injection, schedule: Q01DX009 (ip), vehicle: gum acacia): 6 of 6
survivor count (dose: 400.0 mg/kg/injection, schedule: Q01DX001 (ip), vehicle: gum acacia): 6 of 6

Cc1cc(=O)c2cc(Cc3ccc4[nH]c(C)cc(=O)c4c3)ccc2[nH]1
survivor count (dose: 50.0 mg/kg/injection, schedule: Q01DX009 (ip), vehicle: saline): 0 of 6
survivor count [9]: 0 of 6
survivor count [10]: 0 of 6 and 6 of 6

COC1=C(F)C(=O)C(OC)=C(F)C1=O
survivor count (dose: 10.0 mg/kg/injection, schedule: Q01DX001 (ip), vehicle: alcohol): 0 of 6
survivor count (dose: 20.0 mg/kg/injection, schedule: Q01DX001 (ip), vehicle: alcohol): 0 of 6
survivor count (dose: 40.0 mg/kg/injection, schedule: Q01DX001 (ip), vehicle: alcohol): 0 of 6
survivor count (dose: 75.0 mg/kg/injection, schedule: Q01DX001 (ip), vehicle: saline): 0 of 6
survivor count (dose: 150.0 mg/kg/injection, schedule: Q01DX001 (ip), vehicle: saline): 0 of 6
survivor count [8]: 0 of 6

CC[C@H](CC[C@@H](C)[C@H]1CC[C@H]2[C@@H]3CC=C4C[C@@H](OC(=O)CN5CCNCC5)CC[C@]4(C)[C@H]3CC[C@]12C)C(C)C
survivor count (dose: 400.0 mg/kg/injection, schedule: Q01DX009 (ip), vehicle: water): 0 of 6

CN(C)C(=S)SSSC(=S)N(C)C
survivor count [6]: 3 of 3
survivor count [7]: 2 of 3

Cc1nc2cnn(C)c2nc1C
survivor count [9]: 6 of 6
survivor count [10]: 6 of 6
survivor count (dose: 400.0 mg/kg/injection, schedule: Q01DX009 (ip), vehicle: saline): 4 of 6
survivor count (dose: 400.0 mg/kg/injection, schedule: Q04DX003 (ip), vehicle: saline): 1 of 6

Reference: PubChem BioAssay AID248 (DTP/NCI, 2004)
